Measured values as given in PubChem BioAssay AID194 (DTP/NCI, 2004).
The list shows only some results of the screen, not a fair sample: it gathers tests that were run many times, whatever their T/C, doses with no T/C, and many T/C values between a quarter and a half above the control. Further doses and runs are listed elsewhere. T/C gives the treated animals as a percentage of the vehicle group. Schedule codes are those of the source, taken here to give the interval after Q, in days (D) or hours (H), and the number of doses after X. Some entries give survivors of the animals treated and no T/C: the source files T/C as zero there, which appears to mark a toxic dose or a test without result, not a measured value. Some doses without a T/C left all or most animals alive at the check, yet need not have been tolerated: survival well below the control is almost never listed, so the zero probably covers shortened survival too. Counts of survivors are from the toxicity check (mostly the fifth day) where no day follows; animals may have died later. For survival time, this PubChem deposit counts one and a half times the control or more as active, and values a quarter to a half above the control carry no call in these data; other NCI protocols may use other cut-offs. Some T/C values are followed by the survivors on the day toxicity was checked, most often the fifth; where none is given, no animal had died by that day. Some entries were tested several times; the results are listed from low to high. Marks such as (2×) stand for listed records that agree.

System: BDF1 mice, B16 melanoma s.c., survival/tumor T/C
Assay: NCI In Vivo Anticancer Drug Screen. Data for tumor model B16 Melanoma (subcutaneous) in B6D2F1 (BDF1) mice
Experimental: The antitumor activity of compounds was measured in mice bearing transplantable tumors. Survival or tumor size were measured and the results are expressed as the measurement made in the treated group (T) divided by the measurement made in the vehicle treated control group (C). The tumor model used in this assay is B16 Melanoma (subcutaneous) in B6D2F1 (BDF1) mice

[1] = T/C endpoint: median survival time, dose: 50.0 mg/kg/injection, schedule: Q01DX009 (ip), vehicle: saline, higher T/C = longer survival
[2] = T/C endpoint: median survival time, dose: 100.0 mg/kg/injection, schedule: Q01DX009 (ip), vehicle: saline, higher T/C = longer survival
[3] = T/C endpoint: median survival time, dose: 200.0 mg/kg/injection, schedule: Q01DX009 (ip), vehicle: saline, higher T/C = longer survival
[4] = T/C endpoint: median survival time, dose: 25.0 mg/kg/injection, schedule: Q01DX009 (ip), vehicle: saline, higher T/C = longer survival

CN(C)/N=N/c1nc[nH]c1C(N)=O
T/C (T/C endpoint: median survival time, dose: 37.5 mg/kg/injection, schedule: Q01DX009 (ip), vehicle: Klucel (hydroxypropylcellulose) (HPC), higher T/C = longer survival): 134 [5 of 6 alive] and 139 % of control
T/C (T/C endpoint: median survival time, dose: 75.0 mg/kg/injection, schedule: Q01DX009 (ip), vehicle: Klucel (hydroxypropylcellulose) (HPC), higher T/C = longer survival): 126 % of control
survivor count (T/C endpoint: median survival time, dose: 150.0 mg/kg/injection, schedule: Q01DX009 (ip), vehicle: Klucel (hydroxypropylcellulose) (HPC), higher T/C = longer survival): 5 of 5
survivor count (T/C endpoint: median survival time, dose: 150.0 mg/kg/injection, schedule: Q01DX009 (ip), vehicle: saline, higher T/C = longer survival): 6 of 6
survivor count (T/C endpoint: median survival time, dose: 200.0 mg/kg/injection, schedule: Q01DX009 (ip), vehicle: Klucel (hydroxypropylcellulose) (HPC), higher T/C = longer survival): 10 of 10
survivor count (T/C endpoint: median survival time, dose: 300.0 mg/kg/injection, schedule: Q01DX009 (ip), vehicle: Klucel (hydroxypropylcellulose) (HPC), higher T/C = longer survival): 6 of 6
T/C (T/C endpoint: median survival time, dose: 300.0 mg/kg/injection, schedule: Q01DX009 (ip), vehicle: saline with Tween-80, higher T/C = longer survival): 143 % of control
survivor count (T/C endpoint: median survival time, dose: 300.0 mg/kg/injection, schedule: Q01DX009 (ip), vehicle: saline, higher T/C = longer survival): 5 of 6
survivor count (T/C endpoint: median survival time, dose: 400.0 mg/kg/injection, schedule: Q01DX009 (ip), vehicle: Klucel (hydroxypropylcellulose) (HPC), higher T/C = longer survival): 10 of 10

CCCCC[C@H](O)/C=C/[C@H]1[C@H](O)CC(=O)[C@@H]1C/C=C\CCCC(=O)O
survivor count (T/C endpoint: median survival time, dose: 1.5 mg/kg/injection, schedule: Q04DX002 (ip), vehicle: Klucel (hydroxypropylcellulose) (HPC), higher T/C = longer survival): 3 of 3
survivor count (T/C endpoint: median survival time, dose: 12.0 mg/kg/injection, schedule: Q04DX002 (ip), vehicle: Klucel (hydroxypropylcellulose) (HPC), higher T/C = longer survival): 3 of 3
T/C (T/C endpoint: median survival time, dose: 24.0 mg/kg/injection, schedule: Q04DX002 (ip), vehicle: Klucel (hydroxypropylcellulose) (HPC), higher T/C = longer survival): 131 % of control
survivor count (T/C endpoint: median survival time, dose: 25.0 mg/kg/injection, schedule: Q04DX002 (ip), vehicle: saline with Tween-80, higher T/C = longer survival): 2 of 3
survivor count (T/C endpoint: median survival time, dose: 50.0 mg/kg/injection, schedule: Q04DX002 (ip), vehicle: saline with Tween-80, higher T/C = longer survival): 2 of 3
survivor count (T/C endpoint: median survival time, dose: 100.0 mg/kg/injection, schedule: Q04DX002 (ip), vehicle: saline with Tween-80, higher T/C = longer survival): 0 of 3

CC1(C)CC(O)(C(Cl)c2ccccc2)C(=O)c2ccccc21 (centres undefined)
T/C (T/C endpoint: median tumor weight (est.), dose: 88.0 mg/kg/injection, schedule: Q01DX009 (ip), vehicle: distilled water + Tween-80, evaluated on day 14, higher T/C = larger tumour): 139 % of control

CC[CH2][Sn]([CH2]CC)([CH2]CC)[O][Sn]([CH2]CC)([CH2]CC)[CH2]CC
survivor count (T/C endpoint: median survival time, dose: 4.0 mg/kg/injection, schedule: Q01DX009 (ip), vehicle: saline, higher T/C = longer survival): 5 of 10

Cn1ncc2c(N)ncnc21
survivor count (T/C endpoint: median survival time, dose: 12.5 mg/kg/injection, schedule: Q01DX009 (ip), vehicle: Klucel (hydroxypropylcellulose) (HPC), higher T/C = longer survival): 10 of 10
survivor count (T/C endpoint: median survival time, dose: 25.0 mg/kg/injection, schedule: Q01DX009 (ip), vehicle: Klucel (hydroxypropylcellulose) (HPC), higher T/C = longer survival): 10 of 10
survivor count (T/C endpoint: median survival time, dose: 50.0 mg/kg/injection, schedule: Q01DX009 (ip), vehicle: Klucel (hydroxypropylcellulose) (HPC), higher T/C = longer survival): 10 of 10
survivor count (T/C endpoint: median survival time, dose: 100.0 mg/kg/injection, schedule: Q01DX009 (ip), vehicle: Klucel (hydroxypropylcellulose) (HPC), higher T/C = longer survival): 3 of 10

O=c1cnn(C2OC(CO)C(O)C2O)c(=O)[nH]1 (centres undefined)
survivor count (T/C endpoint: median survival time, dose: 1200.0 mg/kg/injection, schedule: Q01DX009 (ip), vehicle: saline, higher T/C = longer survival): 10 of 10

O=[N+]([O-])O.[Ga]
survivor count (T/C endpoint: median survival time, dose: 8.0 mg/kg/injection, schedule: Q01DX009 (ip), vehicle: saline, higher T/C = longer survival): 10 of 10
T/C (T/C endpoint: median survival time, dose: 60.0 mg/kg/injection, schedule: Q01DX009 (ip), vehicle: saline, higher T/C = longer survival): 130 % of control
survivor count (T/C endpoint: median survival time, dose: 300.0 mg/kg/injection, schedule: Q04DX003 (ip), vehicle: saline, higher T/C = longer survival): 9 of 9
survivor count (T/C endpoint: median survival time, dose: 450.0 mg/kg/injection, schedule: Q04DX003 (ip), vehicle: saline, higher T/C = longer survival): 9 of 10
survivor count (T/C endpoint: median survival time, dose: 900.0 mg/kg/injection, schedule: Q01DX001 (ip), vehicle: saline, higher T/C = longer survival): 5 of 10

CO[C@H](C(=O)[C@@H](O)[C@@H](C)O)[C@@H]1Cc2cc3cc(OC4CC(OC5CC(O)C(O)C(C)O5)C(O)C(C)O4)c(C)c(O)c3c(O)c2C(=O)[C@H]1OC1CC(OC2CC(OC3CC(C)(O)C(O)C(C)O3)C(O)C(C)O2)C(O)C(C)O1 (some centres undefined)
survivor count (T/C endpoint: median survival time, dose: 0.12 mg/kg/injection, schedule: Q01DX009 (ip), vehicle: water, higher T/C = longer survival): 9 of 10
survivor count (T/C endpoint: median survival time, dose: 0.25 mg/kg/injection, schedule: Q01DX009 (ip), vehicle: water, higher T/C = longer survival): 4 of 10
survivor count (T/C endpoint: median survival time, dose: 0.5 mg/kg/injection, schedule: Q01DX009 (ip), vehicle: water, higher T/C = longer survival): 1 of 10
survivor count (T/C endpoint: median survival time, dose: 1.0 mg/kg/injection, schedule: Q01DX009 (ip), vehicle: water, higher T/C = longer survival): 4 of 10
survivor count (T/C endpoint: median survival time, dose: 2.0 mg/kg/injection, schedule: Q01DX009 (ip), vehicle: saline, higher T/C = longer survival): 2 of 10
survivor count (T/C endpoint: median survival time, dose: 2.0 mg/kg/injection, schedule: Q01DX009 (ip), vehicle: water, higher T/C = longer survival): 2 of 10

COC1C(C)OC(OC2CC(C)(O)Cc3cc4c(c(O)c32)C(=O)c2c(O)cc3c(c2C4=O)OC2OC3(C)C(O)C(N(C)C)C2O)C(OC)C1(C)OC (centres undefined)
survivor count (T/C endpoint: median survival time, dose: 5.0 mg/kg/injection, schedule: Q01DX009 (ip), vehicle: other, higher T/C = longer survival): 9 of 10
survivor count (T/C endpoint: median survival time, dose: 10.0 mg/kg/injection, schedule: Q01DX009 (ip), vehicle: other, higher T/C = longer survival): 9 of 10

c1ccc([As+](c2ccccc2)(c2ccccc2)c2ccccc2)cc1
survivor count (T/C endpoint: median survival time, dose: 7.5 mg/kg/injection, schedule: Q01DX009 (ip), vehicle: Klucel (hydroxypropylcellulose) (HPC), higher T/C = longer survival): 8 of 10

CC1(C)N=C(N)N=C(N)N1c1ccc(CCC(=O)Nc2ccc(S(=O)(=O)F)cc2)cc1
survivor count [1]: 6 of 6
survivor count [2]: 6 of 6
survivor count [3]: 6 of 6
survivor count (T/C endpoint: median survival time, dose: 400.0 mg/kg/injection, schedule: Q01DX009 (ip), vehicle: saline, higher T/C = longer survival): 6 of 6

O=C1C=CC(=O)N1c1ccc(Cl)cc1
T/C (T/C endpoint: median survival time, dose: 2.5 mg/kg/injection, schedule: Q01DX009 (ip), vehicle: Klucel (hydroxypropylcellulose) (HPC), higher T/C = longer survival): 132 % of control

Cc1c(N)nc(C(CC(N)=O)NCC(N)C(N)=O)nc1C(=O)NC(C(=O)NC(C)C(O)C(C)C(=O)NC(C(=O)NCCc1nc(-c2nc(C(=O)NCCCNCCCCN)cs2)cs1)C(C)O)C(OC1OC(CO)C(O)C(O)C1OC1OC(CO)C(O)C(OC(N)=O)C1O)c1cnc[nH]1 (centres undefined)
T/C (T/C endpoint: median survival time, dose: 3.12 mg/kg/injection, schedule: Q01DX009 (ip), vehicle: water, higher T/C = longer survival): 143 % of control
T/C (T/C endpoint: median survival time, dose: 6.25 mg/kg/injection, schedule: Q01DX009 (ip), vehicle: water, higher T/C = longer survival): 144 % of control
T/C (T/C endpoint: median survival time, dose: 12.5 mg/kg/injection, schedule: Q01DX009 (ip), vehicle: water, higher T/C = longer survival): 148 % of control
T/C (T/C endpoint: median survival time, dose: 25.0 mg/kg/injection, schedule: Q01DX009 (ip), vehicle: water, higher T/C = longer survival): 127 % of control [9 of 10 alive]

CCCCCCCC(=O)OCC(=O)[C@]1(O)Cc2c(O)c3c(c(O)c2[C@@H](OC2CC(N)C(O)C(C)O2)C1)C(=O)c1c(OC)cccc1C3=O (some centres undefined)
T/C (T/C endpoint: median survival time, dose: 0.25 mg/kg/injection, schedule: Q01DX009 (ip), vehicle: saline with Tween-80, higher T/C = longer survival): 126 % of control
survivor count (T/C endpoint: median survival time, dose: 2.0 mg/kg/injection, schedule: Q01DX009 (ip), vehicle: saline with Tween-80, higher T/C = longer survival): 10 of 10
survivor count (T/C endpoint: median survival time, dose: 4.0 mg/kg/injection, schedule: Q01DX009 (ip), vehicle: saline with Tween-80, higher T/C = longer survival): 10 of 10
survivor count (T/C endpoint: median survival time, dose: 8.0 mg/kg/injection, schedule: Q01DX009 (ip), vehicle: saline with Tween-80, higher T/C = longer survival): 10 of 10

O=c1[nH]c(=O)n(C2CC(O)C(CO)O2)cc1F (centres undefined)
T/C [4]: 92, 102, 103, 112, 115 % of control
survivor count [4]: 6 of 6
T/C (T/C endpoint: median survival time, dose: 50.0 mg/kg/injection, schedule: Q01DX009 (ip), vehicle: saline with Tween-80, higher T/C = longer survival): 127 % of control [5 of 6 alive]
T/C [1]: 100 (2×), 105, 110, 119, 123 % of control
T/C [2]: 97, 100 [5 of 6 alive], 105, 109, 126 % of control
survivor count [2]: 6 of 6
survivor count (T/C endpoint: median survival time, dose: 100.0 mg/kg/injection, schedule: Q04DX003 (ip), vehicle: saline, higher T/C = longer survival): 6 of 6
T/C [3]: 97 % of control
survivor count [3]: 6 of 6
survivor count (T/C endpoint: median tumor weight (est.), dose: 200.0 mg/kg/injection, schedule: Q01DX009 (ip), vehicle: saline with Tween-80, higher T/C = larger tumour): 3 of 6
